Some entries share one result that the patent states for a list of compounds.
System: Trichophyton rubrum
Assay: Antifungal growth inhibition assay in 96 well microtitre plates (A595)
Type: cell-based
Details: clinical isolates 14-01, 14-02, 14-03, 13-04; 72 hours after inoculation
Experimental: The inhibitory effects of the plant defensins on the growth of Trichophyton rubrum, T. interdigitale, Microsporum fulvum and C. albicans (obtained from the National Mycology Reference Centre, South Australia Pathology at the Women's and Children's Hospital, Adelaide, Australia) are measured essentially as described by Broekaert et al. (1990) FEMS Microbiol Lett 69:55-59. Spores of T. rubrum, T. interdigitale and M. fulvum are isolated from sporulating fungus growing on 1⁄2 strength Sabouraud dextrose agar (SDA). Spores were removed from the plates by the addition of 1⁄2 strength potato dextrose broth (PDB). C. albicans cells are grown in Yeast Peptone Broth (YPD) for 16 h. Spore and cell concentrations are measured using a hemocytometer. Antifungal assays are conducted in 96 well microtitre plates essentially as herein described. […] Fungal growth is assayed by measuring optical density at 595 nm ([…]) using a microtitre plate reader (SpectraMax Pro M2; Molecular Devices. Growth is allowed to proceed until the optical density (OD) of the fungus in the absence of any test defensin reached an OD of 0.2. Each test is performed in duplicate.

“HXL008: Class I plant defensin from Picramnia pentandra, SEQ ID NO:1 (KVCTKPSKFFKGLCGTDGACTTACRKEGLHSGYCQLKGFLNSVCVCRKHC; HXL008 Picramnia pentandra)” was tested, and the “IC50s against four clinical isolates of T. rubrum” value was “below 20 μg/mL”.

For “NaD1: Solanaceous Class II plant defensin from Nicotiana alata, SEQ ID NO:18 (RECKTESNTFPGICITKPPCRKACISEKFTDGHCSKILRRCLCTKPC; NaD1 Nicotiana alata)”, the “IC50s against four clinical isolates of T. rubrum” value was “below 20 μg/mL”.

Source: US10010576B2, “Method of treatment” (Hexima Limited, priority 2014, dated 2018)
